Experiment [1] has as its target T1, MCM2-7 double hexamer (Saccharomyces cerevisiae) (UniProt P29469+P24279+P30665+P29496+P53091+P38132). Nature of the experiment: pull-down; DH-DDK interaction assay on DNA-beads with different DDK protein and salt concentrations (Fig. 2f; values only in the figure); both purified.
Experiment [2] concerns the target T1, MCM2-7 double hexamer (Saccharomyces cerevisiae). As to the kind of experiment: pull-down; DH-DDK interaction assay: DH assembled on 10xARS DNA-beads, high salt washed, 50 nM DDK added 30 min 24 °C in pre-RC buffer (3 mM ATP), washed, eluted by DNase I, SDS-PAGE; both purified.
For experiment [3] the target is unchanged. As to the kind of experiment: pull-down; DH-DDK interaction assay: DH assembled on 10xARS DNA-beads, high salt washed, 150 nM DDK added 30 min 24 °C in pre-RC buffer (3 mM ATP), washed, eluted by DNase I, SDS-PAGE; both purified.
The target is the same in experiment [4]. Nature of the experiment: cryo-EM structure; MD-(ATP) with DNA: DH on beads phosphorylated by 400 nM DDK 30 min 24 °C with ATP, eluted by AluI, crosslinked at once with 0.1% glutaraldehyde; both purified.
Experiment [5] shares this target. As to the kind of experiment: pull-down; bead-based origin assembly assay at 24 °C (Supplementary Fig. 1g); DDK concentration not given; both purified.
Experiment [6] has the same target. Nature of the experiment: cryo-EM structure; MD-(ATPγS): 250 nM DH released from beads by AluI + 750 nM DDK, 10 min 24 °C, buffer C with 3 mM ATPγS; GraFix glycerol gradient with glutaraldehyde; states I-III; both purified.
Experiment [7] shares this target. Nature of the experiment: co-sedimentation; 15–45% glycerol gradient without glutaraldehyde, 250 nM DH + 750 nM DDK, buffer C with nucleotide, 16 h at 4 °C; fractions analysed by SDS-PAGE; both purified.
For experiment [8] the target is unchanged. As to the kind of experiment: cryo-EM structure; MD-(ADP:BeF3): 250 nM DH + 750 nM DDK, buffer C with ADP:BeFx (3 mM ADP, 15 mM NaF, 3 mM BeCl2); GraFix; state I and swiveled states; both purified.

By UniProt entry, the sequences of proteins in these tests, tags left out. Where a name states a change or a piece, a line headed by the entry shows the natural chain unless it says otherwise.
UniProt P29469: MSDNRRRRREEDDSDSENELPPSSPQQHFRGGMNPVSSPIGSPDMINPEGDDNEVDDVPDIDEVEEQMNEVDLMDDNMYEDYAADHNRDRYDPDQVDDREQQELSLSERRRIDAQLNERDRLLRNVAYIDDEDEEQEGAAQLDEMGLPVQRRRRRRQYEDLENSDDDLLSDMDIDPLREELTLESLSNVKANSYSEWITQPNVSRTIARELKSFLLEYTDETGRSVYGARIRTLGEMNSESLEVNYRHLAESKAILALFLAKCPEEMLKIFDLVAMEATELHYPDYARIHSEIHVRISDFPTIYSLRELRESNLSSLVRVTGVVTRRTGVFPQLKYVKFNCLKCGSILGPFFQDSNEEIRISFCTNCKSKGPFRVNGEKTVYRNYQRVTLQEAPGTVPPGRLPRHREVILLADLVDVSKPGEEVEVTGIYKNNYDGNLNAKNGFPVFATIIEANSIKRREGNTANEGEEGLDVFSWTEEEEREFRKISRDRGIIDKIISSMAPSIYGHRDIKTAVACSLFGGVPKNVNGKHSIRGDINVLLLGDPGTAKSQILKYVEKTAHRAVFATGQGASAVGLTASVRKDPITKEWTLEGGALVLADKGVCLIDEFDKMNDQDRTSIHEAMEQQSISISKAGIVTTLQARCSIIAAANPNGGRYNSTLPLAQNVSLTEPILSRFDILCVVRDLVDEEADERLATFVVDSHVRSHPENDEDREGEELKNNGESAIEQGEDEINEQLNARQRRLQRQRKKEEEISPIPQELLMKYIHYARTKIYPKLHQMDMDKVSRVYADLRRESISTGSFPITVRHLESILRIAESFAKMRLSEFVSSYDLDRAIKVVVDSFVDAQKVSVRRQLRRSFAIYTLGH
UniProt P24279: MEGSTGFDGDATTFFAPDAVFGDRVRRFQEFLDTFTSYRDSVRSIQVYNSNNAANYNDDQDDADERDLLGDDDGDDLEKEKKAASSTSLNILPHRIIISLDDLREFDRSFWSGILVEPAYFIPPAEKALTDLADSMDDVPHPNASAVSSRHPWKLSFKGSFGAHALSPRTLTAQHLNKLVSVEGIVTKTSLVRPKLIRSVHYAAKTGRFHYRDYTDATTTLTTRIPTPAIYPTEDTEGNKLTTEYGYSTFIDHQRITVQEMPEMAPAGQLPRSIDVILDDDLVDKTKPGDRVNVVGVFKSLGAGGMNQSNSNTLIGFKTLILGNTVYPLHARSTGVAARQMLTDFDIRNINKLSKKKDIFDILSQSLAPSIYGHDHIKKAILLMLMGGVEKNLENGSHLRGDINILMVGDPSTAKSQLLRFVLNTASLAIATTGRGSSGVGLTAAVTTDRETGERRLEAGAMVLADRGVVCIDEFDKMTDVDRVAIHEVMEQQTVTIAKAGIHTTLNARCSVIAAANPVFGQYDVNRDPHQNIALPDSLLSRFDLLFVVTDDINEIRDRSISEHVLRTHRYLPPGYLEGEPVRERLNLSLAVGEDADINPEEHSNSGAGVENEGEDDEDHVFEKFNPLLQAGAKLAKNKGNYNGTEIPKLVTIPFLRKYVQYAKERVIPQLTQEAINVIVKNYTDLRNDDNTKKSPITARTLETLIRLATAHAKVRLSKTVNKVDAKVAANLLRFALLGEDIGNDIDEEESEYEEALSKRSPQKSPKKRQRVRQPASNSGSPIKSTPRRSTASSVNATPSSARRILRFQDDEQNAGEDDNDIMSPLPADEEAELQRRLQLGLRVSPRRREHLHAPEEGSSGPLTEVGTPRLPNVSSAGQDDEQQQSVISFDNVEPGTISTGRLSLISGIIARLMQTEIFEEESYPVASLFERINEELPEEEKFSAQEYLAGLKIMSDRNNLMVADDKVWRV
UniProt P30665: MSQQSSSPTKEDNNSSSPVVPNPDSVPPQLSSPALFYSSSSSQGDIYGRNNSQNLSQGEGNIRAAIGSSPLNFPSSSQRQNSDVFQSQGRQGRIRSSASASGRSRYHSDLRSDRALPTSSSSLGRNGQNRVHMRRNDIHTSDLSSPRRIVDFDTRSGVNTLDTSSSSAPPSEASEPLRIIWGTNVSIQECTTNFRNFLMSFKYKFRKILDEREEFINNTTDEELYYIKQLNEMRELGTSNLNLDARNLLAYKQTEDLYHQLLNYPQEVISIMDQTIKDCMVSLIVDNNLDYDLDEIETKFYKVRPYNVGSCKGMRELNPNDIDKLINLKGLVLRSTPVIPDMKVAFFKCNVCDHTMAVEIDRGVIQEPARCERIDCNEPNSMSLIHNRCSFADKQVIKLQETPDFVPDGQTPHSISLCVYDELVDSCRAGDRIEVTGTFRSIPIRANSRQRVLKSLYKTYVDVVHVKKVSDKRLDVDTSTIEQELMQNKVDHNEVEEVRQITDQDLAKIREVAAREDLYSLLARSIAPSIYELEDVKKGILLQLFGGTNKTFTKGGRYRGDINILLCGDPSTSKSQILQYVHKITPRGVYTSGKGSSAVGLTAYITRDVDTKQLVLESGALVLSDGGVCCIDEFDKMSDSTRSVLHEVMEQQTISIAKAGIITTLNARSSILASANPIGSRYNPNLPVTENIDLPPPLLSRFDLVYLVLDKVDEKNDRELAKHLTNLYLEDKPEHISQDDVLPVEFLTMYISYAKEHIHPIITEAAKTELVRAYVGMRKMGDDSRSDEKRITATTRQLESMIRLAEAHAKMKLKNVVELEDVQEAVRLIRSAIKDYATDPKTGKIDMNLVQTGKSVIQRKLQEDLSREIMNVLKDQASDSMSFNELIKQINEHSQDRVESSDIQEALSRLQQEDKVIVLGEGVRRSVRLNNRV
UniProt P29496: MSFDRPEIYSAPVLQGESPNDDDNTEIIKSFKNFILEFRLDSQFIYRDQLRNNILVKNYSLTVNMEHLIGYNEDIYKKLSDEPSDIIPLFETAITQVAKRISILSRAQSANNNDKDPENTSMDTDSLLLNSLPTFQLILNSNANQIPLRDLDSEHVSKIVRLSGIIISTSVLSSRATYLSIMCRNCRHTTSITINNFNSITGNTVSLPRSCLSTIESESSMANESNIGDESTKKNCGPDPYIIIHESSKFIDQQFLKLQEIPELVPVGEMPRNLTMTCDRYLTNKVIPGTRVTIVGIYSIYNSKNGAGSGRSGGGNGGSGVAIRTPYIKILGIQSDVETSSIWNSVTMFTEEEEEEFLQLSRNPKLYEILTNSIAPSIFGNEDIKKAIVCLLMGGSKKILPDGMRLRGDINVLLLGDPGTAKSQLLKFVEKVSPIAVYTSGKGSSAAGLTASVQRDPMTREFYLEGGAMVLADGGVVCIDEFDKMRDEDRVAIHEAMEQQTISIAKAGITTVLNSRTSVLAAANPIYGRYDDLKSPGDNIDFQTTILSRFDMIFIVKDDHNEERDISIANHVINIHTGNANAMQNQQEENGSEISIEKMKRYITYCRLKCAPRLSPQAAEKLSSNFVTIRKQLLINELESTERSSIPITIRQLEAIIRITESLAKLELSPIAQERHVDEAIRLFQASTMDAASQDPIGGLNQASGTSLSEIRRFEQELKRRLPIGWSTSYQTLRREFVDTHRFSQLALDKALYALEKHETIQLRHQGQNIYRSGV
UniProt P53091: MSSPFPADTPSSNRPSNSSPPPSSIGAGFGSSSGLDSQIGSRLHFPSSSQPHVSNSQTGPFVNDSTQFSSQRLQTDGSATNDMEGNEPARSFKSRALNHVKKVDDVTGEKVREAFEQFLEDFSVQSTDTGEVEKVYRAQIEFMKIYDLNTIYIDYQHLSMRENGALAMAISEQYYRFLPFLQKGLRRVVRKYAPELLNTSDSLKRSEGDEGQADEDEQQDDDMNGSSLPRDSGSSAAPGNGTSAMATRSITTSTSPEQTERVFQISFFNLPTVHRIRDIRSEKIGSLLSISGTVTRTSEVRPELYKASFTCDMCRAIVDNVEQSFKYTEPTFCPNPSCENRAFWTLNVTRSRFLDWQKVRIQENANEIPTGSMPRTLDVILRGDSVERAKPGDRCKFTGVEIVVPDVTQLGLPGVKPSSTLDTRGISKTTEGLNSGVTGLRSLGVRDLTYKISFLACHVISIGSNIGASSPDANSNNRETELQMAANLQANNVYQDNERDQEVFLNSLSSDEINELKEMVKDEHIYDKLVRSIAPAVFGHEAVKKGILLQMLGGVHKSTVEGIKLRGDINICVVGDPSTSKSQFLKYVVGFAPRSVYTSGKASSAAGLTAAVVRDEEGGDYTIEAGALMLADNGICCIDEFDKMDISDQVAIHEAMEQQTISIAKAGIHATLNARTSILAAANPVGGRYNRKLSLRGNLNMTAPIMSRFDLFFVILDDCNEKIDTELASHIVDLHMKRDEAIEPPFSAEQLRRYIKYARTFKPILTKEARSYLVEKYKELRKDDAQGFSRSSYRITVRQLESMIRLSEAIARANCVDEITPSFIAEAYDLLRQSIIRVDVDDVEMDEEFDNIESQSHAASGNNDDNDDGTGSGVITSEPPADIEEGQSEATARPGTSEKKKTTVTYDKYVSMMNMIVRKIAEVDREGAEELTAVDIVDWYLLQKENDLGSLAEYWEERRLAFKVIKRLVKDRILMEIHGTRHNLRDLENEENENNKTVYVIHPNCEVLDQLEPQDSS
UniProt P38132: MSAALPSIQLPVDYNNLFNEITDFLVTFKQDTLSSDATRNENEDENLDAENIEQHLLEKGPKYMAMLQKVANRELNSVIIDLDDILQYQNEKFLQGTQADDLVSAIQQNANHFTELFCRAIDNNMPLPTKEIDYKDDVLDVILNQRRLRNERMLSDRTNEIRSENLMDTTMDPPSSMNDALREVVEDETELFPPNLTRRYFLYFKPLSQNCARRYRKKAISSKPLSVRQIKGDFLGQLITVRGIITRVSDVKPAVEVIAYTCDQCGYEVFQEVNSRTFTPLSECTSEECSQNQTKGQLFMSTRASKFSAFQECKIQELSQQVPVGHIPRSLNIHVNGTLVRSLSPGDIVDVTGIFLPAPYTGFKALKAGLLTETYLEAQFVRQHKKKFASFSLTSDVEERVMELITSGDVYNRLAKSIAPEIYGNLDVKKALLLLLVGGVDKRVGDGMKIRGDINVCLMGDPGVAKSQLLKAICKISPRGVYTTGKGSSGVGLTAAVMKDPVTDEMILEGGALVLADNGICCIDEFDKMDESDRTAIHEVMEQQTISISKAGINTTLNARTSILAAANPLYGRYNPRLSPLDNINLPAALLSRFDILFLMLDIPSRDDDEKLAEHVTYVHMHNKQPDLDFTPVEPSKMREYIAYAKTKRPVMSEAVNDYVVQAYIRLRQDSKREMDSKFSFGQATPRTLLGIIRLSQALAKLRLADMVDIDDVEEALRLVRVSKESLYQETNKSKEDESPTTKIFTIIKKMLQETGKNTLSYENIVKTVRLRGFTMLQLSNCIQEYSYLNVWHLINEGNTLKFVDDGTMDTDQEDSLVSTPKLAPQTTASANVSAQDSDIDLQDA
UniProt P06243: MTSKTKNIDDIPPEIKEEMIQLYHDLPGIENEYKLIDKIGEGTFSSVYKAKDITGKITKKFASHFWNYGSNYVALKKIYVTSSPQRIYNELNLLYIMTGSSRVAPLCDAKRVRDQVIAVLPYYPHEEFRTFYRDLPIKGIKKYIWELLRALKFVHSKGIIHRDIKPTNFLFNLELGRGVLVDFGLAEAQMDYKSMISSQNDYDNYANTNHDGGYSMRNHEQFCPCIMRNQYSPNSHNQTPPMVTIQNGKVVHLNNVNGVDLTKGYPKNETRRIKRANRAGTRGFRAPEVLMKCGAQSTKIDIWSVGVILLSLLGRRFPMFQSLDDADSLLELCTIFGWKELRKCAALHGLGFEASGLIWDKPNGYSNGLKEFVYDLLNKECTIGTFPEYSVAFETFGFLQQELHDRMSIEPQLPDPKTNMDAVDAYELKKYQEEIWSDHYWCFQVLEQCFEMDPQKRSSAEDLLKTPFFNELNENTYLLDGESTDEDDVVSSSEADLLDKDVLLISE

These are yes or no findings as the source states them, for the method shown. Some entries that bind do so weakly or less than the wild type.

For the substance “DDK with Dbf4 Δ220 (from UniProt P06243 1-507; P32325 1-704) (complex)”, the binding result in experiment [1] is “no binding”; in experiment [2], “no binding (tested: 50 nM DDK)”; in experiment [3], “no binding (tested: 150 nM DDK)”.

On to “DDK with Dbf4 Δmotif N (from UniProt P06243 1-507; P32325 1-704) (complex)”, for which, in experiment [3], the binding entry is “binds”.

Take “Dbf4-dependent Cdc7 kinase (DDK), wild type (from UniProt P06243 1-507; P32325 1-704) (complex)”: the binding result in experiment [4], in experiment [5], in experiment [6], in experiment [7], in experiment [2] and in experiment [3] was “binds” each time. The binding entry in experiment [8] is “binds”.

Take “DDK with Dbf4 Δ110 (from UniProt P06243 1-507; P32325 1-704) (complex)”: the binding entry in experiment [2] and in experiment [3] was “binds” throughout.

(Values after article PMC9133112, “The structural basis of Cdc7-Dbf4 kinase dependent targeting and phosphorylation of the MCM2-7 double hexamer” (Nature Communications, 2022).)
